Results reported in patent publication US20130209515A1, “ANTI-INFECTIVE AND IMMUNOMODULATORY COMPOUNDS” (priority 2005, published 2013).
Some of these results come from one statement about several compounds together. Some compounds share one range, which may span the group rather than tell each member.

Tested on: P. aeruginosa PA14
Test: PA14 systemic spread in BI mice (cfu in muscle and blood)
Assay type: in vivo
Conditions: treated at 6 hr BI, 24 hr (FIG. 27B)
Protocol: Furthermore, 6-FABA, 6CABA, and 4CABA efficacy in limiting PA14 systemic spread was assessed by comparing burn mice infected with PA14 and then treated with the compounds at 6 hr BI with control untreated BI mice. For each experimental set of n=18, 6 mice were sacrificed at 24 hr, and bacteria numbers were determined in muscle tissue underlaying or adjacent to the […] site and in blood. The inoculation procedure used in the thermal injury model greatly limits the initial delivery of bacteria to blood and muscle, so bacteria in these tissues reflect post-infection systemic spread.
In an experiment to determine the whether 6-fluoro-2-aminobenzoic acid (6FABA) affects the systemic spread of P. aeruginosa cells in a mouse burn/infection model, the results of which are shown in FIGS. 28A and 28B, 15 mice were treated with 100 μL of a 20 mM solution of 6-FABA 6 hrs or 12 hours post-burn and infection, and the PA14 cfu/mg of tissue (i.e., in blood and in muscle adjacent to the burn and infection) was determined at 24 hours and 36 hours post-burn.

Row | Compound | difference in PA14 cfu in muscle adjacent to the burn and inoculation site compared to the control
1 | Nc1cccc(Cl)c1C(=O)O [6-CABA, 6-chloro-2-aminobenzoic acid] | 2-3 log
2 | Nc1cccc(F)c1C(=O)O [6-FABA, 6-fluoro-2-aminobenzoic acid] | 2-3 log
